Measured data: PubChem BioAssay AID1053209 (Peter MacCallum Cancer Centre, 2014)

Assay: 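Knock-downs that sensitise mouse osteosarcoma cells to doxorubicin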 (follow-up of hits)
Cells: mouse primary osteosarcoma cells
Reagent: single siRNA against mouse genes, 25 nM (text also states 40 nM)
Time to read-out: about 120 h (48 h before drug, then 72 h with drug)
Treatment: doxorubicin 100 nM (about IC30-40), added 48 h after transfection, for 72 h
Measurement: 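ATP-based luminescent viability, with or without doxorubicin, relative to non-targeting control NT1, mean of two replicates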
Direction: viability with doxorubicin, vs NT1: higher = more viable cells under doxorubicin; viability without drug, vs NT1: higher = more viable cells without drug
Hit rule: 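Counted as active (class LC dox) if viability falls to 0.7 of NT1 or below under doxorubicin but stays within 0.7 to 1.1 without drug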
Here is an unselected part of about 1,580 deposited reagents. Of all reagents, 207 (13%) got an active call. 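Rows are single siRNAs; four siRNAs per gene were tested, a gene counting as confirmed only when at least two agree.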 Entries without a mark were called inactive. The numbers tell different reagents against one gene apart. Not all columns of the deposit are shown.

gene knocked down	reagent	combined effect class	viability with doxorubicin, vs NT1	viability without drug, vs NT1
Msgn1	1	low viability only with doxorubicin; normal without drug (active)	0.7	0.74
Msgn1	2	normal viability with and without drug	0.94	0.94
Msgn1	3	normal viability with and without drug	0.8	0.87
Msgn1	4	normal viability with and without drug	0.9	0.88
Pth2r	1	normal viability with and without drug	0.96	0.96
Pth2r	2	normal viability with and without drug	1.02	1.06
Pth2r	3	high viability only without drug	1.06	1.16
Pth2r	4	normal viability with and without drug	1.02	1.03
Sike1	1	high viability only with doxorubicin	1.14	1.02
Sike1	2	normal viability with and without drug	0.88	0.96
Sike1	3	normal viability with and without drug	0.98	0.96
Sike1	4	normal viability with and without drug	0.97	1.04
Ikzf2	1	normal viability with and without drug	1.01	0.96
Ikzf2	2	normal viability with and without drug	0.92	1.09
Ikzf2	3	normal viability with and without drug	1.02	1
Ikzf2	4	low viability only with doxorubicin; normal without drug (active)	0.4	0.78
Pold2	1	low viability only with doxorubicin; normal without drug (active)	0.7	0.98
Pold2	2	normal viability with and without drug	0.98	1.03
Pold2	3	normal viability with and without drug	0.9	0.92
Pold2	4	normal viability with and without drug	1.03	1.01
Clrn1	1	low viability only with doxorubicin; normal without drug (active)	0.64	0.84
Clrn1	2	high viability only with doxorubicin	1.1	1
Clrn1	3	normal viability with and without drug	0.94	0.99
Clrn1	4	normal viability with and without drug	0.88	0.94
Rhov	1	normal viability with and without drug	1.08	0.98
Rhov	2	normal viability with and without drug	1.01	1.02
Rhov	3	normal viability with and without drug	1.06	1.02
Rhov	4	normal viability with and without drug	1.04	1.07
Rpl3	1	low viability with and without drug	0.26	0.32
Rpl3	2	low viability with and without drug	0.42	0.55
Rpl3	3	low viability with and without drug	0.28	0.34
Rpl3	4	low viability with and without drug	0.26	0.48
Rpl7	1	low viability with and without drug	0.34	0.55
Rpl7	2	low viability with and without drug	0.18	0.32
Rpl7	3	low viability with and without drug	0.24	0.38
Rpl7	4	low viability with and without drug	0.23	0.38
Ncoa6	1	normal viability with and without drug	1.07	1.04
Ncoa6	2	normal viability with and without drug	0.81	1.01
Ncoa6	3	normal viability with and without drug	0.99	0.96
Ncoa6	4	high viability only with doxorubicin	1.15	0.97
Dnajc8	1	normal viability with and without drug	0.86	0.76
Dnajc8	2	high viability only with doxorubicin	1.17	0.96
Dnajc8	3	low viability only with doxorubicin; normal without drug (active)	0.51	0.74
Dnajc8	4	high viability only with doxorubicin	1.16	0.92
Mphosph10	1	normal viability with and without drug	0.81	0.86
Mphosph10	2	normal viability with and without drug	0.97	0.9
Mphosph10	3	normal viability with and without drug	0.81	0.9
Mphosph10	4	normal viability with and without drug	0.92	0.98
Rpl10	1	normal viability with and without drug	0.77	0.9
Rpl10	2	low viability with and without drug	0.39	0.64
Rpl10	3	low viability with and without drug	0.53	0.64
Rpl10	4	low viability only with doxorubicin; normal without drug (active)	0.4	0.72
Snrpg	1	normal viability with and without drug	0.73	0.82
Snrpg	2	low viability with and without drug	0.24	0.3
Snrpg	3	low viability with and without drug	0.24	0.29
Snrpg	4	low viability with and without drug	0.35	0.4
Arfgap1	1	normal viability with and without drug	0.9	0.91
Arfgap1	2	normal viability with and without drug	0.99	0.9
Arfgap1	3	normal viability with and without drug	0.9	0.88
Arfgap1	4	normal viability with and without drug	0.82	0.96

Records listed so far whose target name starts with I or i (4):
gene knocked down	reagent	combined effect class	viability with doxorubicin, vs NT1	viability without drug, vs NT1
Ikzf2	1	normal viability with and without drug	1.01	0.96
Ikzf2	2	normal viability with and without drug	0.92	1.09
Ikzf2	3	normal viability with and without drug	1.02	1
Ikzf2	4	low viability only with doxorubicin; normal without drug (active)	0.4	0.78
